Experimental data: PMC7031652
These are yes or no findings as the source states them, for the method shown. In cells and extracts the contact can be indirect.

The chains behind the UniProt entries cited, without tags or fusion partners.
UniProt A0A6G7KUU3: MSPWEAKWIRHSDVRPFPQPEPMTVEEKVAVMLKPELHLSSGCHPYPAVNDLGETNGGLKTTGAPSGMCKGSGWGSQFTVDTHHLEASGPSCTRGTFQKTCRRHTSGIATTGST
UniProt A0A6B9QR77: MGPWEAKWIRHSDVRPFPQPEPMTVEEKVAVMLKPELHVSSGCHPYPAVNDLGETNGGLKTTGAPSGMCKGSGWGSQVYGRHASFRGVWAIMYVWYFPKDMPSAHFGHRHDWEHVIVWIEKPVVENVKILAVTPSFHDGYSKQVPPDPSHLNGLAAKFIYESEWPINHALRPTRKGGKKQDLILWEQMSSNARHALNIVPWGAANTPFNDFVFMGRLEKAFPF

Assays:
[1] = biological target: PvNLP1 (Plasmopara viticola necrosis and ethylene inducing peptide 1-like protein 1), tagged with a fluorescent protein (Plasmopara viticola); assay: co-IP
[2] = biological target: PvNLP3 (Plasmopara viticola necrosis and ethylene inducing peptide 1-like protein 3), tagged with a fluorescent protein (Plasmopara viticola); assay: co-IP

Row | Substance | binding [1] | binding [2]
1 | PvNLP1 (Plasmopara viticola necrosis and ethylene inducing peptide 1-like protein 1), tagged with a fluorescent protein (from UniProt A0A6G7KUU3 1-114) | no binding | no binding
2 | PvNLP3 (Plasmopara viticola necrosis and ethylene inducing peptide 1-like protein 3), tagged with a fluorescent protein (from UniProt A0A6B9QR77 1-223) | – | no binding
